In patent US11385234B2, “Methods and systems for detecting an analyte or classifying a sample” (Commonwealth Scientific and Industrial Research Organisation, priority 2012, dated 2022):

Experiments:
GFP^2-RG-RLuc biosensor = assay: On-chip (Y-shape microchannel) BRET^H thrombin assay; assay type: biochemical
[1] = tested on: BRET^2 based thrombin biosensor; assay: Real-time on-chip thrombin sensing, side-by-side vs pancake stack network; assay type: biochemical; details: 50 μl per hour each input arm
BRET thrombin biosensor = details: Dacres et al. 2009a; cited from earlier work

Substance: thrombin
- detection limit for thrombin, microchip-based technique (GFP^2-RG-RLuc biosensor; 3.0 μM fusion protein, 58.6 μM native coelenterazine, 20 μl/h, x=2.1 mm): 27 pM
- sensitivity to changing thrombin concentrations, microfluidic vs microplate (gradients of calibrations) (GFP^2-RG-RLuc biosensor; low thrombin concentration region): 4.7 times
- lowest concentration of thrombin observable in real time, side-by-side network ([1]; 120 seconds): 540 nM
- lowest concentration of thrombin detected, pancake stack network ([1]; 478 second residence time, lowest concentration tested): 14 nM
- detection limit for thrombin, BRET^1 microplate-based assay (BRET thrombin biosensor): 53 µM
- detection limit for thrombin, BRET^2 microplate-based assay (BRET thrombin biosensor): 15 µM
